Test results as given in publication PMC12097036.
Results are given in words; binding and its absence hold for the method and conditions named. In cells and extracts the contact can be indirect. Here binding means that the protein was enriched with, or labelled near, the bait; the list need not be complete. Tags and fused reporters may be left off the sequences shown.

Chains of the proteins cited; added tags and fusions are not shown.
UniProt Q9NRW1: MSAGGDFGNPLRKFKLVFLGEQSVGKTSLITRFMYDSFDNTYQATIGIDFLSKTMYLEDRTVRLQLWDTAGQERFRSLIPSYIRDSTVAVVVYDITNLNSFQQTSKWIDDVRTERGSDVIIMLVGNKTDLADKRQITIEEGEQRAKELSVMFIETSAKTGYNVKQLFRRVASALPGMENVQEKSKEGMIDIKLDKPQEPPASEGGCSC
UniProt P51149: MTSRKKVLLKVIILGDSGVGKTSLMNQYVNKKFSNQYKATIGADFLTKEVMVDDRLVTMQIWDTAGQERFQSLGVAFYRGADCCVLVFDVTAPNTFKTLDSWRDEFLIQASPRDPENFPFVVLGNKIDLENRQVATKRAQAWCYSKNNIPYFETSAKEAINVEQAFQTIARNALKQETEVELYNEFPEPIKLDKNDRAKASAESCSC
UniProt P20340: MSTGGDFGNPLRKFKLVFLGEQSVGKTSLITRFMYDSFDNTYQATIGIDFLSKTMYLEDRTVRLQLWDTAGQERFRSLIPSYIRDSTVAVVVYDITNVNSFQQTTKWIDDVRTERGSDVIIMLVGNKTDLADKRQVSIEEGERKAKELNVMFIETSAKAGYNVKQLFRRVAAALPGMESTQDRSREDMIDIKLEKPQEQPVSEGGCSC

T1: Flag-RAB3B (human) (UniProt P20337)
T1 sequence: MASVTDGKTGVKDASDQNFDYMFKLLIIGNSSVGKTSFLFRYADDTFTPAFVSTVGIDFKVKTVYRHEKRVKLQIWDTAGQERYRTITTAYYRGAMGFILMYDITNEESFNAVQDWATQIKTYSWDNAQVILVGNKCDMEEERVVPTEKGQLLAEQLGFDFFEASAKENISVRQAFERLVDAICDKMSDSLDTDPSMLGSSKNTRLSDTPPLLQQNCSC

B1: RAB3A (protein, UniProt P20336 1-220)
chain: MASATDSRYGQKESSDQNFDYMFKILIIGNSSVGKTSFLFRYADDSFTPAFVSTVGIDFKVKTIYRNDKRIKLQIWDTAGQERYRTITTAYYRGAMGFILMYDITNEESFNAVQDWSTQIKTYSWDNAQVLLVGNKCDMEDERVVSSERGRQLADHLGFEFFEASAKDNINVKQTFERLVDVICEKMSESLDTADPAVTGAKQGPQLSDQQVPPHQDCAC
B2: PPM1B (enzyme, UniProt O75688 1-479)
chain: MGAFLDKPKTEKHNAHGAGNGLRYGLSSMQGWRVEMEDAHTAVVGIPHGLEDWSFFAVYDGHAGSRVANYCSTHLLEHITTNEDFRAAGKSGSALELSVENVKNGIRTGFLKIDEYMRNFSDLRNGMDRSGSTAVGVMISPKHIYFINCGDSRAVLYRNGQVCFSTQDHKPCNPREKERIQNAGGSVMIQRVNGSLAVSRALGDYDYKCVDGKGPTEQLVSPEPEVYEILRAEEDEFIILACDGIWDVMSNEELCEYVKSRLEVSDDLENVCNWVVDTCLHKGSRDNMSIVLVCFSNAPKVSDEAVKKDSELDKHLESRVEEIMEKSGEEGMPDLAHVMRILSAENIPNLPPGGGLAGKRNVIEAVYSRLNPHRESDGASDEAEESGSQGKLVEALRQMRINHRGNYRQLLEEMLTSYRLAKVEGEESPAEPAATATSSNSDAGNPVTMQESHTESESGLAELDSSNEDAGTKMSGEKI

Each molecule was assayed against T1, Flag-RAB3B (human) (assay: affinity purification with mass spectrometry; IP of RAB3B from cell lysate on beads (M2 or HA-conjugated beads, 4 °C, 120 min; lysis buffer 150 mM NaCl, 0.5% NP-40, 1 mM EDTA, 50 mM Tris-Cl pH 7.4), beads analysed by MS; cell line and bait construct not stated).

binding, binds:
RAB6B (from UniProt Q9NRW1 1-208)
RAB7A (from UniProt P51149 1-207)
RAB6A (from UniProt P20340 1-208)
DUSP12 (from UniProt Q9UNI6 1-340) (enzyme)
B1
B2
